This is one part of the list. The data scatter; read single values as rough.

We go through 56 compounds from the supplement of paper PMC7824004.

This assay relates to Candida albicans SN425. Nature of the assay: biofilm OD600 B-score; higher = more biofilm (less inhibition). The note with it: 10 µM; assay detail: High-throughput adherence inhibition optical density biofilm assay with C. albicans SN425 in RPMI-1640/MOPS pH 7.0, 384-well plates. …. On the procedure: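 High-throughput adherence inhibition optical density biofilm assay with C. albicans SN425 in RPMI-1640/MOPS pH 7.0, 384-well plates. Compound (10 µM) was present only during the 90 min adherence step, then washed out, and the biofilm grew 24 h without compound. Biofilm was read as OD600 after removing the media. Scores are the difference from the mean in standard deviations and the plate B-score.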

For the compound `O=C(CCCOc1ccccc1)N1CCCCCC1`, the “biofilm OD600 B-score” value turned out to be 0.303.

Take `CC1CCCC(C)N1S(=O)(=O)c1ccc(N)cc1` (stereo unspecified): the “biofilm OD600 B-score” value worked out at 0.0201.

For the compound `Cc1ccc(S(=O)(=O)N2CCc3ccccc32)cc1C(N)=O`, the “biofilm OD600 B-score” value was found to be 4.74.

Take `O=C(NCc1cccnc1)c1cc2ccccc2o1`: the “biofilm OD600 B-score” value was -0.0176.

Regarding `O=C(Nc1ccccc1)NC1CCCC1`, the “biofilm OD600 B-score” value is 0.331.

For the compound `O=C(O)c1cccnc1SCCc1ccccc1`, the “biofilm OD600 B-score” value was -3.38.

With `CC(C)c1ccc(C(=O)NCCCN2CCOCC2)cc1`, the “biofilm OD600 B-score” value is 3.

As for `CC(C)Oc1ccccc1NC(=O)CSc1nnnn1C`, the “biofilm OD600 B-score” value is -0.0794.

On to `COc1cccc(CNc2ccc(F)c(Cl)c2)c1OC`, for which the “biofilm OD600 B-score” value was -0.325.

Take `CCC(C(=O)NCCO)c1ccccc1` (stereo unspecified): the “biofilm OD600 B-score” value is -4.1.

In the case of `Cc1cccc(C(=O)NCc2cccnc2)c1`, the “biofilm OD600 B-score” value amounted to 1.61.

Take `O=C(NN1CCOCC1)c1ccc(Cl)cc1Cl`: the “biofilm OD600 B-score” value is -1.04.

As to `COc1ccc(N2CCN(C(=O)Nc3ccccc3)CC2)cc1`, the “biofilm OD600 B-score” value is -1.54.

Turning to `Cc1cc(=O)n(C)c(=O)n1CCCCO`, the “biofilm OD600 B-score” value was 0.732.

In the case of `Cc1c(NC(=O)N2CCCCCC2)c(=O)n(-c2ccccc2)n1C`, the “biofilm OD600 B-score” value is 0.179.

In the case of `COc1ccc(N2CCN(Cc3cccc(OC)c3OC)CC2)cc1`, the “biofilm OD600 B-score” value is -1.62.

In the case of `C=CCOc1ccc(CN2CCOCC2)cc1`, the “biofilm OD600 B-score” value was 0.572.

With `O=S(=O)(Cc1ccccc1)N1CCN(C/C=C/c2ccccc2)CC1`, the “biofilm OD600 B-score” value was 1.03.

Take `O=C(CN1CCN(c2ccc(F)cc2)CC1)Nc1ccccn1`: the “biofilm OD600 B-score” value stood at 0.134.

`Nc1ccc2c(c1)C(=O)N(CC1CCCO1)C2=O` (stereo unspecified): the “biofilm OD600 B-score” value is -0.913.

For `CC(=O)Nc1nnc(SCC(=O)N2CCCCC2)s1`, the “biofilm OD600 B-score” value is 0.485.

On to `CN1CCCC1CCNC1CC2CCC1C2` (stereo unspecified), for which the “biofilm OD600 B-score” value was -0.107.

As to `CCc1ccc(NC(=O)Cn2nnnc2C)cc1`, the “biofilm OD600 B-score” value is 0.0225.

As to `O=C(O)C1C2C=CC(C2)C1C(=O)NCC1CCCO1` (stereo unspecified), the “biofilm OD600 B-score” value is -1.11.

As for `C1=CC2CC1CC2CN1CCN(c2ccccc2)CC1` (stereo unspecified), the “biofilm OD600 B-score” value is -0.891.

`Cc1ccc(CN2CCN(Cc3ccccc3)CC2)o1`: the “biofilm OD600 B-score” value was -2.05.

For `CC(=O)Nc1ccc(NC(=O)c2ccccc2F)cc1`, the “biofilm OD600 B-score” value was -1.98.

For `CCCn1[nH]cc(SC)c(=O)c1=O`, the “biofilm OD600 B-score” value amounted to 0.052.

Take `COc1cccc(N(CC(=O)N2CCOCC2)S(C)(=O)=O)c1`: the “biofilm OD600 B-score” value was -3.94.

On to `COc1c(S(=O)(=O)NCCCN2CCOCC2)ccc(Cl)c1Cl`, for which the “biofilm OD600 B-score” value was -0.685.

In the case of `CC(NC(=O)COc1ccc(Cl)cc1)C(=O)O` (stereo unspecified), the “biofilm OD600 B-score” value is -0.0799.

For `CCOc1ccccc1N1CCN(Cc2ccsc2)CC1`, the “biofilm OD600 B-score” value was 1.88.

As to `NCCOc1ccccc1Cc1ccccc1`, the “biofilm OD600 B-score” value is -1.24.

With `O=C(NCCN1CCOCC1)Nc1cccc(Cl)c1`, the “biofilm OD600 B-score” value amounted to 0.691.

Take `N#CNC(N)=Nc1ccccc1`: the “biofilm OD600 B-score” value was -2.29.

Consider `CC1CCN(CC(O)COc2ccc3c(c2)CCC3)CC1` (stereo unspecified), for which the “biofilm OD600 B-score” value came out at 1.53.

Take `CCCC(=O)Nc1ccc(Cc2ccncc2)cc1`: the “biofilm OD600 B-score” value was -0.854.

For `Cn1c(NC(=O)c2ccc(F)cc2)nc2ccccc21`, the “biofilm OD600 B-score” value is -1.07.

With `CCC(=O)Nc1ccc(Br)c2cccnc12`, the “biofilm OD600 B-score” value stood at 0.319.

Take `N#CCCn1cc(CO)c(-c2ccc(F)cc2)n1`: the “biofilm OD600 B-score” value is -0.0162.

As for `c1ccc(-n2nnnc2SCCN2CCOCC2)cc1`, the “biofilm OD600 B-score” value came out at 1.19.

Consider `CN1CCC(N(C)Cc2c(F)cccc2Cl)CC1`, for which the “biofilm OD600 B-score” value was -4.09.

For `COc1ccc(COCC(O)CN2CCCCC2)cc1OC` (stereo unspecified), the “biofilm OD600 B-score” value was -0.249.

Regarding `NC(=O)Oc1ccc(C2CCCCC2)cc1`, the “biofilm OD600 B-score” value is 1.41.

For `Cc1ccccc1NC(=O)c1ccc(C)c(S(=O)(=O)Nc2cccnc2)c1`, the “biofilm OD600 B-score” value was -0.187.

As for `Cc1ccc(C(=O)NCCSc2ccccn2)cc1`, the “biofilm OD600 B-score” value is -0.0356.

For the compound `CC(=O)NCCc1ccc(S(=O)(=O)N2CCCC2)cc1`, the “biofilm OD600 B-score” value was 1.48.

For `c1ccc(C(CNc2ncccn2)c2ccccc2)cc1`, the “biofilm OD600 B-score” value was -0.24.

As for `COc1ccc(C(=O)NCCCN2CCOCC2)cc1`, the “biofilm OD600 B-score” value is 0.854.

`CC(=O)Nc1nc(-c2ccccc2)c(-c2ccccc2)o1`: the “biofilm OD600 B-score” value came to 0.376.

Consider `CCc1ccc(OCC(O)CNC(C)C)cc1` (stereo unspecified), for which the “biofilm OD600 B-score” value is -2.21.

With `O=C(Nc1ccc2c(c1)OCO2)NC1CCCCC1`, the “biofilm OD600 B-score” value is -0.941.

On to `O=C(c1cc2ccccc2o1)N1CCOCC1`, for which the “biofilm OD600 B-score” value came out at 0.478.

In the case of `COc1cc(Cl)c(S(=O)(=O)N2CCCCC2)cc1Cl`, the “biofilm OD600 B-score” value is 1.36.

`Cc1cc(C)n(-c2cc(NCCO)ncn2)n1`: the “biofilm OD600 B-score” value came to 0.862.

In the case of `CCOC(=O)Nc1nnc(-c2ccccc2)s1`, the “biofilm OD600 B-score” value was determined as 2.1.
